Assay results: publication PMC8395201
No constants are given. Whether binding was seen depends on the method and setting. In cells and extracts the contact can be indirect. Some results given as binding are weak or reduced against the parent protein; the word gives no strength.

Amino acid sequences for entries named in this document (tags omitted). Residues count along the entry.
UniProt Q16288, residues 32-839: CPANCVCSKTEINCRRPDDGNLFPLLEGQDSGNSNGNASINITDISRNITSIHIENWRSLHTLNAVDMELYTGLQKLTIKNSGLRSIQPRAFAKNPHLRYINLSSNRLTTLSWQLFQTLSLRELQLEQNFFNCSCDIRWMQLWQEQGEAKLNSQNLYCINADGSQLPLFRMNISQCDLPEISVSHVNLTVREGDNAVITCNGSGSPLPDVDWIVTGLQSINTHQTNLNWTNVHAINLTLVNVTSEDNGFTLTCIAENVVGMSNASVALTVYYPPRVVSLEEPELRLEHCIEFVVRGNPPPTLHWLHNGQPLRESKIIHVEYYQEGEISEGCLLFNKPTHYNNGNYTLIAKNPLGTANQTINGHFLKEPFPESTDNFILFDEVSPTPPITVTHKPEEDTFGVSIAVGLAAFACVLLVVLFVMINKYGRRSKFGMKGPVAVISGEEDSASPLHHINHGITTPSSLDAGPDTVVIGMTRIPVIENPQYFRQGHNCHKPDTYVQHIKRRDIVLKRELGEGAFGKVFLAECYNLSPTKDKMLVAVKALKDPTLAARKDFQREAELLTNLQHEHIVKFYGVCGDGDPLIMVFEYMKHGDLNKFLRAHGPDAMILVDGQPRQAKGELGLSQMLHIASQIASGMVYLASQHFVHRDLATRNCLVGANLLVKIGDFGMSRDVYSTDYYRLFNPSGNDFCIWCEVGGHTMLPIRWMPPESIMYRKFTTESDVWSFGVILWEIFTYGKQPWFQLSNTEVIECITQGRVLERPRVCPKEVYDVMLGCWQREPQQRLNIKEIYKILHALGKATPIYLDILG
UniProt P23975: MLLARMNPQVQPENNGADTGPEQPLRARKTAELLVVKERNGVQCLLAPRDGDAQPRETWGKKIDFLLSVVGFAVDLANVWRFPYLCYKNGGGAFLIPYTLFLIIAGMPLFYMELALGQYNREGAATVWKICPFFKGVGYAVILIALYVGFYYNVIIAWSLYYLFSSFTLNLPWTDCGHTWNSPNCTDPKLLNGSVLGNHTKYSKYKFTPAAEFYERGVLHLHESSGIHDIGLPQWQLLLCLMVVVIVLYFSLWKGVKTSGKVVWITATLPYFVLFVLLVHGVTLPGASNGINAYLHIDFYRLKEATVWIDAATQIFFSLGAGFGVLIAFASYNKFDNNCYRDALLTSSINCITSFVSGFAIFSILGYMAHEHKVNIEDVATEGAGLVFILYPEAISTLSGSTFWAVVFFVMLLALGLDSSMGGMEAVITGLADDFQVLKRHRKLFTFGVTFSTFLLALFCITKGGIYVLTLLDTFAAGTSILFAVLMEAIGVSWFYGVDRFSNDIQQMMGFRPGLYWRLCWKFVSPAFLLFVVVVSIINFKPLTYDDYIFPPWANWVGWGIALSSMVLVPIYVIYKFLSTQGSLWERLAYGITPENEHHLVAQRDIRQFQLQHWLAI

T1: neurotrophin-3 (NT-3) (human (endogenous in T cells of peripheral blood)) (UniProt P20783)
T1 sequence: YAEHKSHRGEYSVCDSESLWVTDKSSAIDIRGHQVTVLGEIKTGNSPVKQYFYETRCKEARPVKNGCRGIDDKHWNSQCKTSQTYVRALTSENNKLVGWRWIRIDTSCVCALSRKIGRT


What was measured:
Test in all cases: co-IP; lysate of T cells of healthy controls; lysis buffer Tris-HCl 50 mM, NaCl 120 mM, IGEPAL 0.5%, NaF 100 mM, NaVO3 2 mM; primary antibody overnight at 4 °C, Protein A/G Plus Agarose; Western blot with densitometry
[1] = target: T1, neurotrophin-3 (NT-3) (human (endogenous in T cells of peripheral blood))
[2] = target: tropomyosin receptor kinase C (TrkC) (human (endogenous in T cells of peripheral blood)) (UniProt Q16288)
[3] = target: norepinephrine transporter (NET) (human (endogenous in T cells of peripheral blood)) (UniProt P23975)

binding [1]	binding [2]	binding [3]	Molecule
binds	binds		norepinephrine transporter (NET) (from UniProt P23975 1-617)
		binds	tropomyosin receptor kinase C (TrkC) (from UniProt Q16288 32-839)
		binds	neurotrophin-3 (NT-3) (ligand, UniProt P20783 139-257) YAEHKSHRGEYSVCDSESLWVTDKSSAIDIRGHQVTVLGEIKTGNSPVKQYFYETRCKEARPVKNGCRGIDDKHWNSQCKTSQTYVRALTSENNKLVGWRWIRIDTSCVCALSRKIGRT
